Experimental data taken from patent US11173196B2, “Vectors for expression of prostate-associated antigens” (Pfizer Inc., priority 2013, dated 2021).
For at least one compound, name, drawing or mass did not settle the structure.

Tested on: Myeloid Derived Suppressor Cells (MDSC)
Assay: Adoptively transferred MDSC recovered from spleen, flow cytometry, low dose sunitinib
Type: in vivo, BALB/c mice
Details: for Statistical significance, p < 0.05 (MDSC #/spleen vs vehicle): one-way ANOVA, Dunnett's test

CCN(CC)CCNC(=O)c1c(C)[nH]c(/C=C2\C(=O)Nc3ccc(F)cc32)c1C [Sunitinib, butanedioic acid, hydroxy-, (2S)—, compound with N-[2-(diethylamino)ethyl]-5-[(Z)-(5-fluoro-1,2-dihydro-2-oxo-3H-indol-3-ylidine)methyl]-2,4-dimethyl-1H-pyrrole-3-carboxamide (1:1)]
Statistical significance, p < 0.05 (MDSC #/spleen vs vehicle) (Sunitinib Dose 5 mg/kg): Yes | Statistical significance, p < 0.05 (MDSC #/spleen vs vehicle) (Sunitinib Dose 10 mg/kg): Yes | Statistical significance, p < 0.05 (MDSC #/spleen vs vehicle) (Sunitinib Dose 20 mg/kg): Yes | numbers of MDSCs recovered compared to vehicle treated control group (dosed bi-daily, as low as 5 mg/kg): statistically significant reduction
